Experimental data: PubChem BioAssay AID652259 (Drosophila RNAi Screening Center, 2013)
The deposit covers about 22,000 reagents; shown is an unselected part of those with a known target gene and a result. Of all reagents, 233 (1.1%) were called active. 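Light values are raw, unnormalised plate reads; the ratio scores behind the reporter calls were not deposited.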 Not stated in the record: the amount of reagent, the time to read-out, the dose of the treatment.

- Aim: 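Identify new Wingless signalling regulators in fly cells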 (primary screen)
- Cells: Drosophila clone 8 imaginal disc epithelial cells
- Knock-down reagent: long dsRNA against Drosophila genes
- Conditions: pathway stimulated by co-transfected Wingless expression plasmid
- Detection: 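Dual luciferase reads per well after Wingless plasmid stimulation: reporter firefly light and Renilla control light; activity is firefly divided by Renilla, a ratio not deposited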
- Scale: firefly reporter light: higher = more Wg reporter light, before normalisation; Renilla control light: higher = more transfected or surviving cells
- Rule for the call: 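Strong candidates differ from their plate mean by at least two out of four per-plate statistical tests; weak candidates meet just one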
- Calls: active = candidate regulator (raises or lowers reporter); inactive = not a candidate

no.	gene	amplicon	reporter change call, replicate 1	firefly reporter light, replicate 1	firefly reporter light, replicate 2	Renilla control light, replicate 1	Renilla control light, replicate 2	activity call
1	obe (obelus)	DRSC15736		5427		2320		inactive
2	Cpr62Bc (Cuticular protein 62Bc)	DRSC08545		9243		4033		inactive
3	CG32582 (retired record)	DRSC19114		4588		816		inactive
4	dpr5 (defective proboscis extension response 5)	DRSC15766		7636		2565		inactive
5	CG14990	DRSC08449		7017		2224		inactive
6	salr (spalt-related)	DRSC03607		3988	8138	518	2770	inactive
7	CG10068	DRSC12508		8160		2496		inactive
8	CG14332	DRSC14811		18064		4824		inactive
9	esc (extra sexcombs)	DRSC03529		6957		1685		inactive
10	CG14840	DRSC14964		12192		3232		inactive
11	sau (sauron)	DRSC00694		11633		2569		inactive
12	CG2224	DRSC15429		6220		2688		inactive
13	CG4612	DRSC04478		6748		2154		inactive
14	qkr54B (quaking related 54B)	DRSC07670		6080		2257		inactive
15	CG11630	DRSC03696		2189	8373	770	2592	inactive
16	CG11696	DRSC19417		2909	5371	710	2352	inactive
17	Rab3	DRSC07523		22192		6612		inactive
18	Cpr66D (Cuticular protein 66D)	DRSC10640		1939	6296	470	1192	inactive
19	Cpr66D (Cuticular protein 66D)	DRSC10646	Wg reporter activity raised	11312	1834	1622	793	inactive
20	PpN58A (Protein phosphatase N at 58A)	DRSC04642		8992		3345		inactive
21	Sply (Sphingosine-1-phosphate lyase)	DRSC07299		4592		1277		inactive
22	CG4325	DRSC18516	Wg reporter activity raised	21799		5100		active
23	G9a	DRSC18619		15850		10578		inactive
24	app (approximated)	DRSC09159		3248		2112		inactive
25	app (approximated)	DRSC10246		5900		2396		inactive
26	app (approximated)	DRSC10526		13369		3300		inactive
27	CG4404	DRSC19897		27763		10677		inactive
28	Cpr66Cb (Cuticular protein 66Cb)	DRSC10769		1008	5120	939	2992	inactive
29	Oct-TyrR (Octopamine-Tyramine receptor)	DRSC11883		17997		4000		inactive
30	CG4259	DRSC00645		2338	3994	1213	1984	inactive
31	pck (pickel)	DRSC18565		2436	9522	998	2267	inactive
32	yellow-e3	DRSC15170		10052		1834		inactive
33	SF1 (Splicing factor 1)	DRSC16844		11333		3488		inactive
34	CCT7 (Chaperonin containing TCP1 subunit 7)	DRSC16410		17778		3248		inactive
35	CG34435	DRSC18086		14839		6844		inactive
36	CG31496	DRSC12547		4416		2009		inactive
37	CG10589	DRSC11629		18481		6295		inactive
38	APC10 (Anaphase Promoting Complex subunit 10)	DRSC06071		9367		2828		inactive
39	Oseg5 (Outer segment 5)	DRSC03209		3767	7204	1042	3184	inactive
40	CG7882	DRSC04899		3530	4652	818	2033	inactive
41	nesd (nessun dorma)	DRSC02099		11853		3504		inactive
42	twr (twisted bristles roughened eye)	DRSC12491		13002		3104		inactive
43	Cyp4e1 (Cytochrome P450 4e1)	DRSC07370		2784	5955	624	2042	inactive
44	beat-Va (beaten path Va)	DRSC14192		16691		5376		inactive
45	ppl (pumpless)	DRSC11899		7549		2475		inactive
46	CG7094	DRSC03005		2073	4691	864	2981	inactive
47	snama (something that sticks like glue)	DRSC04049		7716		3224		inactive
48	Vps53 (Vacuolar protein sorting 53)	DRSC00595		10441		4240		inactive
49	Theg (Testicular haploid expressed gene)	DRSC16023		2880	4196	1057	1795	inactive
50	CG14759	DRSC06494		2889	8337	715	2851	inactive
51	Ocho	DRSC11239		6679		2840		inactive
52	CG15082	DRSC06513		7108		2653		inactive
53	SmydA-2 (SET and MYND domain containing, arthropod-specific, member 2)	DRSC10296		7606		2087		inactive
54	Rcd1 (Reduction in Cnn dots 1)	DRSC07116		10978		869		inactive
55	AP-1gamma (Adaptor Protein complex 1, gamma subunit)	DRSC18433		15239		10907		inactive
56	CG15803	DRSC15121		12291		3872		inactive
57	Irk1 (Inwardly rectifying potassium channel 1)	DRSC14686		19419		16237		inactive
58	Irk1 (Inwardly rectifying potassium channel 1)	DRSC16106		10961		10758		inactive
59	CG31664	DRSC22084		3.99e5	4.57e5	1.59e5	1.68e5	inactive
60	jagn (jagunal)	DRSC12152		14242		3848		inactive
61	PKD (Protein Kinase D)	DRSC16200		14956		3680		inactive
62	NimB1 (Nimrod B1)	DRSC01880		17673		4709		inactive
63	SdhCL (Succinate dehydrogenase, subunit C-like)	DRSC16078		22761		5929		inactive
64	THG (tRNA-histidine guanylyltransferase)	DRSC01896		3948	6630	1883	4514	inactive
65	Fer1HCH (Ferritin 1 heavy chain homologue)	DRSC16671		2912	7090	1052	1865	inactive
66	mle (maleless)	DRSC04921		4848	10608	832	2241	inactive
67	Prim1 (DNA primase subunit 1)	DRSC11137		856	4632	810	2308	inactive
68	tin (tinman)	DRSC17083		36853		9197		inactive
69	tin (tinman)	DRSC22853		2.94e5	3.43e5	78829	1.14e5	inactive
70	Rh2 (Rhodopsin 2)	DRSC16821		13701		2540		inactive
71	CG13123	DRSC02219		1946	5072	696	1989	inactive
72	CG3294	DRSC00590		7912		3136		inactive
73	CG32452	DRSC11581		4372		2101		inactive
74	CG32452	DRSC22250		7.68e5	7.30e5	3.33e5	3.97e5	inactive

Entries listed so far with an active call (1):
gene	amplicon	reporter change call, replicate 1	firefly reporter light, replicate 1	firefly reporter light, replicate 2	Renilla control light, replicate 1	Renilla control light, replicate 2	activity call
CG4325	DRSC18516	Wg reporter activity raised	21799		5100		active
